Results from patent US20240279325A1.
No constants are given. Whether binding was seen depends on the method and setting. Some entries that bind do so weakly or less than the wild type.

Amino acid sequences for entries named in this document (tags omitted). Residues count along the entry.
UniProt P05231, residues 30-212: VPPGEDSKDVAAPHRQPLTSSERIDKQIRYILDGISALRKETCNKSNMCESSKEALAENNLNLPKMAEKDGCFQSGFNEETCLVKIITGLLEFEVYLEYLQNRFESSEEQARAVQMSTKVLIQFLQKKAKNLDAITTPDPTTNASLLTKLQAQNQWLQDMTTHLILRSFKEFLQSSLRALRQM

Molecular target: IL-6 (UniProt P05231)
Assay: phage ELISA, biotin-labeled IL-6 on StreptaWell plate, […] CaCl2 or 1 mM EDTA

binding: binds
B1: 6KC4-1 #85 (Fab, V domains shown)
VH: EVQLVESGGGLVQPGGSLRLSCAASGFTFSSYEMNWVRQAPGKGLEWVSYISSSGSTIYYADSVKGRFTISRDNAKNSLYLQMNSLRAEDTAVYYCARDAPYYYDSSGYTDAFDIWGQGTMVTVSS
VL: EIVLTQSPATLSLSPGERATLSCRASQSVSSYLAWYQQKPGQAPRLLIFDASNRAAGIPARFSGSGSGTDFTLTISSLEPEDFAVYYCQQFDKWVTFGGGTTVEIR
